Results are given in words; binding and its absence hold for the method and conditions named. Some entries that bind do so weakly or less than the wild type.
molecular target: MSLN.Fc protein (human) (UniProt Q13421); assay: ELISA, antigen coated, TG1 supernatant

Chains of the proteins cited; added tags and fusions are not shown. Lines headed by an entry give the natural chain unless they say otherwise; changes in a name come on top. A line that says so, or that is headed by a name, gives the form on record, which may keep a tag or linker.
MSLN.Fc protein (Q13421, form named): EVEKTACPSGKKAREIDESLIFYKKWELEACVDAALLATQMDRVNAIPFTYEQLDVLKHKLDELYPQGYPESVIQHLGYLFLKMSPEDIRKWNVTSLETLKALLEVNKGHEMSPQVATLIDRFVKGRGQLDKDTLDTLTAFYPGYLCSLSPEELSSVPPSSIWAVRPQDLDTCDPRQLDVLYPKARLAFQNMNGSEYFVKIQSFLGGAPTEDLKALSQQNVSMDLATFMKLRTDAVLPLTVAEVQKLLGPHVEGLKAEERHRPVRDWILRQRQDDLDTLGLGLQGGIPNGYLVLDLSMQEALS
MSLN·His protein (Q13421, form named): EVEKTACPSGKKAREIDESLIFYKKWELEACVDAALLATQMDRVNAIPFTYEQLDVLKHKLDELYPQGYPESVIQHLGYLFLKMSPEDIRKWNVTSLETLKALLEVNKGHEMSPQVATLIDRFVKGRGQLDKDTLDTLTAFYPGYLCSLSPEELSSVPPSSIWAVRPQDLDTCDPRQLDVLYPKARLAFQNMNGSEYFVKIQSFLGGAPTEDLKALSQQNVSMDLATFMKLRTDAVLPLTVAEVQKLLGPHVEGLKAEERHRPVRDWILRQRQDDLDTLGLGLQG

binding	Binder
binds	M210 (VHH) VHH: QVQLVESGGGLVQPGGSLRLSCAASGITLDNYAIAWFRQAPGKKREGVSCISSNGNTYYQPSVKGRFTIARDNAKNTVYLHMNNLNPEDTAVYYCQVGQFSSSTTPVQAMSVMSLYADWGQGTQVTVSS
binds	M050 (VHH) VHH: EVQLQESGGGLVQAGGSLRLSCAASGAVSSINAMGWYRQTPEKVRKLVATMGSGGNTYYADSVKGRFTISRDYAKNTVALQMNNLIPEDTAVYYCAADKFGADIHEVDYWGKGTLVTVSS
binds	M156 (VHH) VHH: QVQLVESGGGLVQAGGSLRLSCAVSGISFEYYAIGWFRQAPGKEREAVSCTTSGTTSGGGVTDYADSLKGRFTISRDVAKNTVYLQMNNLTPEDTAVYYCAADIHCRGYVLFVPSDFGNWGQGTQVTVSS
binds	M182 (VHH) VHH: QVQLVESGGGSVQAGGSLTLSCAASGAVSSINAMGWYRQTPEKVRQLVATMGSGGNTYYAASVKGRFTISRDYAKNTVALQMNHLLPEDTAVYYCAADRFGADIREVDYWGKGTQVTVSS
binds	M224 (VHH) VHH: QVQLVESGGGLVQPGGSLRLSCAASGFTFHYYAIGWFRQAPGKEREGVSCISSSGDSTWFSDSVKGRFTVSRDNAKNIVHLQMNNLKPEDTAVYYCAGTTRSGYVCYDAEPYDSWGQGTQVTVSS
binds	M044 (VHH) VHH: QVQVVESGGGFVQAGGSLRLSCAASTPIISIAYMGWYRQISEKERQLVATINSGGKTYYADSVKGRFTISRDNAKNTLYLQMNMLKPEDTGMYYCAASNKDYNDYDPDWGQGTQVTVSS
binds	M197 (VHH) VHH: EVQLVESGGGLVQAGGSLRLSCAASGSHFGLNVVGWYRQAPGKQRELVASIGNSGRTTDYADSVKGRFTISKDNAQNTIYLQMNNLKPEDTAMYRCHLRVSVERGYWGQGTQVTVSS
binds	M126 (VHH) VHH: EVQLVESGGGWVQSGGSLRLACAASGDSFGLNVVGWYRLAPDKQRELVASIGNGGRTTDYADSVKGRFTISSDNAKNTVFLQMNDLKPEDTAMYYCHLRVSVTEGYWGQGTQVTVSS
binds	M005 (VHH) VHH: EVQLVESGGGWVQSGGSLRLACAASGSSFGLNVVGWYRQAPDKQRELVASIGNGGRTTDYADSVKGRFTISSDNAKNTVFLQMNDLKPEDTAVYYCHLRASVTKGYWGQGTQVTVSS
binds	M012 (VHH) VHH: QVQLVESGGDLVQTGGSLRLSCVVSGSTFAINAMGWYRQAPGKERELVAAISSGGDSTHYADDVKGRFTISRDNAENTMYLQMKSLKPEDTAVYVCNARGCRDFHNPQALCVLRDYWGQGTQVTVSS
binds	M129 (VHH) VHH: QVQLVESGGGSAQAGGSLILSCVASANLFTIDALGWYRQAPGPKRELVAAISSGGNKYYADAVKGRFTISRDTLTKTMWLQMNNLKPEDTAMYYCAAEDYGLGQRSWGMGTQVTVSS
binds	M004 (VHH) VHH: EVQLVESGGGLVQAGGSLRLSCAASESISSIAYMGWYRRISEKERNLVATISSTGSTYYADSVKGRFTISRDNAKNTMYLQMNRLKPEDTAIYYCAASNKAYNDYDPDWGQGTQVTVSS
binds	M032 (VHH) VHH: EVQLVESGGGSVQAGGSLKISCAASGSVIDIGAMGWYRHITEKERKLVATINAGGNTYYADSVKGRFTISRDNAKYTVYLQMNSLKPEDTAMYYCAAEDINYTGTEAYYWGQGTQVTVSS
binds	M169 (VHH) VHH: EVQLVESGGGTVQPGESLRLSCEASGAVSTINAMGWYRQTPEMRKLVATMGSGGNTYYADSVKGRFTISRDFAGNTVDLQMNDLKPEDTGVYFCAADKFGADIKEVAYWGKGTLVTVSS

molecular target: MSLN·His protein (human) (UniProt Q13421); assay: ELISA, antigen coated, TG1 supernatant

binding	Binder
binds	M2339 (VHH) VHH: QLQLGASGGGLVQPGGSLRLSCALSGFTLRELDEFAIGWFRQAPGKEREGVSCISGTGGITHYADSVKGRFTISRDIAKTTVYLQMNSLNSEDTAVYYCAADERCTDRLIRPPTYWGQGTQVTVSS

molecular target: MSLN·His protein (human) (UniProt Q13421); assay: SPR (Biacore T200), MSLN-His amine-coupled to a CM5 chip, antibody injected to saturation

binding	Binder
binds	M044 (VHH) VHH: QVQVVESGGGFVQAGGSLRLSCAASTPIISIAYMGWYRQISEKERQLVATINSGGKTYYADSVKGRFTISRDNAKNTLYLQMNMLKPEDTGMYYCAASNKDYNDYDPDWGQGTQVTVSS

molecular target: MSLN·His protein (human) (UniProt Q13421); assay: SPR (Biacore T200), MSLN-His amine-coupled to a CM5 chip, M044 injected as second antibody after YP218

binding	Binder
binds	M044 (VHH) VHH: QVQVVESGGGFVQAGGSLRLSCAASTPIISIAYMGWYRQISEKERQLVATINSGGKTYYADSVKGRFTISRDNAKNTLYLQMNMLKPEDTGMYYCAASNKDYNDYDPDWGQGTQVTVSS

Source: patent US20240190986A1
